These are yes or no findings as the source states them, for the method shown. Binding calls can cover weak binding; strength is not graded here.
Target: T1, isoamylase 1 (potato ISA1) (potato (Solanum tuberosum)) (UniProt Q84YG7)
T1 sequence: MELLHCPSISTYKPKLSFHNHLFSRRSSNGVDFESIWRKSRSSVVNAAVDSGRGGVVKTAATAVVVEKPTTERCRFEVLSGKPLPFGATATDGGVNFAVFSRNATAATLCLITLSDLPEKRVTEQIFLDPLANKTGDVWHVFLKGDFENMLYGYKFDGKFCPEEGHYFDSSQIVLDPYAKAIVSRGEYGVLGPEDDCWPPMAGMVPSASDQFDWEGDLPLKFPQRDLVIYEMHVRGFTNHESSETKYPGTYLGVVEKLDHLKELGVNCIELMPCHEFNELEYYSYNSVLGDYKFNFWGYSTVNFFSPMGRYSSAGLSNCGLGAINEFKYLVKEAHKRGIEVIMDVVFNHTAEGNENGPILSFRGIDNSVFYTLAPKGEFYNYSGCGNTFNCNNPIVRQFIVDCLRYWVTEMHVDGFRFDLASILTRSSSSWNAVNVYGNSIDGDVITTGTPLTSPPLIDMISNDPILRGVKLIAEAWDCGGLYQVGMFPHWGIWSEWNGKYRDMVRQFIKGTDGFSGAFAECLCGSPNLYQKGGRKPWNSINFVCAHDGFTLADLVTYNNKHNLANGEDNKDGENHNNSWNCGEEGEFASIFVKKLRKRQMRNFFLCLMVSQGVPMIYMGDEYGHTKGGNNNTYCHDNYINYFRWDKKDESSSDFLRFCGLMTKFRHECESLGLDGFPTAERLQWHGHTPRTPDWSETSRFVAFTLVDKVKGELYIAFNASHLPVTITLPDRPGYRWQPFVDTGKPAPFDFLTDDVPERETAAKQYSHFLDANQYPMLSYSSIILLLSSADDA
Experiment: two-hybrid

For LIKE EARLY STARVATION (potato LESV), the binding was “binds”.
